Measured values published in patent publication US12171821B2, “Toxoplasma gondii vaccine” (priority 2018, dated 2024).
At least one structure is not confirmed: it was looked up by name or label, or the drawing left a doubt.

Tested on: T. gondii
Experiment: Oocyst counts in mouse feces by microscopy
Type: in vivo, Toxoplasma gondii
Conditions: mice, inhibitor every 12 hours only until day 5 postinfection, peak days 8-9
Method: Delta-6-desaturase inhibition. SC 26196 (Cayman) was solubilized in DMSO and used at 20 μM in mouse organoid monolayers. For in vivo treatment, the inhibitor was solubilized in 0.5% m/v methylcellulose and the mice were given 50 mg/kg every 12 hours by oral gavage (He et al., 2012). 4-week old C57BL/6J female mice deleted in Z-DNA-binding protein (Pittman et al., 2016) were divided into four different groups: uninfected control, T. gondii-infected without fatty acid supplementation, T. gondii infected with linoleic acid supplementation, and T. gondii-infected with linoleic acid and SC 26196 inhibitor. Each mouse supplemented with linoleic acid received 10 μL of 99% linoleic acid oil (MilliporaSigma Cat #843483) suspended in 0.5% Methylcellulose per day by oral gavage. Mice were infected with 1000 brain cysts purified as described above by oral gavage and euthanized 7 days post infection. Sample size was at least 2 mice per group and the experiment was repeated 5 times. Alternatively, each mouse was infected with one mouse brain at least 2 months postinfection with at least 1000 cysts. Mice were treated with SC 26196 until day 5 postinfection. Feces were collected from days 5-14 and oocysts enumerated by microscopy.

**Q.** With `N#CC(CCCN1CCN(/N=C/c2cccnc2)CC1)(c1ccccc1)c1ccccc1` [SC26196] as the molecule, how does the “oocysts at peak of shedding” value read?
**A.** 100,000450,000
